Assay results from PMC7257154.
No constants are given. Whether binding was seen depends on the method and setting. In cells and extracts the contact can be indirect. Binding can be weak; no strength is given. Tags and fused reporters may be left off the sequences shown.

Molecular target: native Smad1 (Xenopus laevis (endogenous in embryos))
Test: co-IP; lysate of late gastrula Xenopus laevis embryos injected with RNA of the Myc-tagged construct; native Smad1 precipitated with anti-Smad1 and Dynabeads Protein G, blot with anti-Myc; lysis buffer 150 mM NaCl, 20 mM Tris pH 7.5, 1% Nonidet P-40, 1 mM EDTA; 4 °C overnight; normal rabbit IgG as control

- binding: binds
B1: Myc-Tbx2ΔN (domain or fragment, UniProt B7ZQY8 54-688)
chain: DASLAGAAEAGLHLSALGHHHQAAHLRSLKSLEPEEEVEDDPKVNLEAKELWDQFHKIGTEMVITKSGRRMFPPFKVRVSGLDKKAKYILLMDIVAADDCRYKFHNSRWMVAGKADPEMPKRMYIHPDSPATGEQWMAKPVAFHKLKLTNNISDKHGFTILNSMHKYQPRFHIVRANDILKLPYSTFRTYVFPETDFIAVTAYQNDKITQLKIDNNPFAKGFRDTGNGRREKRKQLSLPSLRMYEEQCKADRDGAESDASSCDPAPGRDSLHSPLSAEPSPLRLHRNNREEKFGADSDQELDRREIRSARSHSPVGHRSPPSSPRLEDRGKDKSTPEKKSDSPESRKDGSDSLFSSIRSLEKDKAESRRKEDSKSDPECGSLSKETFAPLMVQTDSPPHLSASHLQSLALSGLHGQQFFNPLNAGQPLFIHPGQFTMGPGAFSAMGMGHLLASMTGAGALDNGSLSSVQGATGAANPFPFHFSQHMLASQGIPMPAFGGLFPYPYTYMAAAAAAASAMPATSAATTMPRNPFLSSTRPRLRFNPYQIPVGIPPSTNLLTTGLPGSLNPGSESSKPGSSRESSPIPDTPVPKRSHSNSLSPKASMKDSINELQNIQRLVSGLESQREISPGRETPK
